The results in this text go back to PubChem BioAssay AID2685 (National Center for Advancing Translational Sciences (NCATS), 2010).

The list shows a part of the results. Further columns of the screen follow, without active or inactive calls. Most of these compounds were active or inconclusive in the main read-out, so they are no random draw. The note in brackets gives the kind of curve behind each potency; many fits are weak.

The test in a line: qHTS Assay for Lipid Storage Modulators in Drosophila S3 Cells.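 For cell number change: cells counted by Cell Tracker Red CMTPX staining in the red channel.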 Conditions: BODIPY lipid droplet fluorescence, 18-24 h; for cell number change: measured here: cell count max response, cells fed with added oleic acid. A digest of the protocol: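 Drosophila S3 cells loaded with oleic acid (400 uM, as added) and compounds at several concentrations; lipid droplets imaged by 488-nm laser-scanning cytometry, 500–530 nm intensity and object ratio to cell channel. Percent activity normalized to 20 uM Triacsin C.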

Where [1] appears, read: measured here: cell number channel AC50, cells fed with added oleic acid.
Setting [2] is: measured here: lipid fluorescence (Fed channel) AC50, cells fed with added oleic acid.

As a reminder, the AC50 is the midpoint of the concentration-response curve, whichever way the signal moves. Low values mean activity at low concentration, high ones activity only at high concentration. Consider `COc1ccc(CCNC(=O)Cn2nc(C(=O)O)c3ccccc3c2=O)cc1OC`, for which the cell number change is -52.9%. Moreover, under setting [1], the AC50 was 29.1 µM [falling, partial curve, poor fit]. Moreover, the AC50 under setting [2] was 0.0326 µM [falling, full curve]. As to `CCc1ccc(OCC(=O)Nc2nnc(C3CCCC3)s2)cc1`, the cell number change turned out to be 1.18%. For the same compound, the AC50 under setting [2] was 1.64 µM [rising, partial curve]. Take `CC(C)CN(C(=O)CCC(=O)OCc1ccc(Cl)cc1Cl)c1c(N)n(CC(C)C)c(=O)[nH]c1=O`: the cell number change was -37.9%. Also, under setting [1], the half-maximal activity concentration (AC50) is 29.1 µM [falling, single point]. Besides, the concentration at half-maximal activity (AC50) under setting [2] is 0.58 µM [falling, single point]. With `Cc1ccc(S(=O)(=O)c2ccc(NN)cc2)cc1`, the AC50 under setting [2] was 4.61 µM [falling, partial curve, poor fit]. Consider `O=C(CC1C(=O)NCCN1C(=O)c1ccc([N+](=O)[O-])cc1)Nc1cccc(Cl)c1` (stereo not given), for which the cell number change is 21.4%. As to `CCOCCn1c(-c2ccccc2)nc2ccccc21`, the cell number change was 12.3%. Besides, under setting [2], the half-maximal activity concentration (AC50) was 18.4 µM [rising, single point]. With `CCOC(=O)C1CCN(Cc2nc3ccccc3c(=O)n2-c2ccc(OCC)cc2)CC1`, the cell number change was -17.7%. Further, the AC50 under setting [2] is 23.1 µM [falling, partial curve]. In the case of `CC(=O)c1ccc(NC(=O)CSc2nc(N)c3cc4c(nc3n2)CCCC4)cc1`, the cell number change is -39.5%. Further, the AC50 under setting [1] was 20.6 µM [falling, single point]. Moreover, under setting [2], the half-maximal activity concentration (AC50) was 23.1 µM [falling, single point].

For the compound `COCCNC(=O)c1ccc(C(=O)NCCOC)s1`, the cell number change was -13.9%. Besides, the concentration at half-maximal activity (AC50) under setting [1] is 6.51 µM [falling, single point]. Moreover, under setting [2], the AC50 is 20.6 µM [falling, partial curve]. Regarding `c1ccc(Cc2nn[nH]n2)cc1`, the cell number change is -0.13%.

Turning to `Cc1ccc(S(=O)(=O)N2CCCN(C(=O)OC(C)(C)C)CC2)cc1`, the cell number change worked out at 15.2%. Besides, under setting [2], the AC50 was 6.51 µM [rising, single point]. As to `COC(=O)COc1ccc(Oc2nc(SC)nc(N(C)C)n2)nn1`, the cell number change worked out at 0.801%. The half-maximal activity concentration (AC50) under setting [2] is 29.1 µM [rising, single point].

On to `COc1ccc(Oc2coc3cc(OC(=O)/C=C/c4ccc(F)cc4)ccc3c2=O)cc1`, for which the cell number change was -28.2%. In addition, the half-maximal activity concentration (AC50) under setting [2] was 11.6 µM [falling, single point]. Consider `Cc1cc(=O)oc2cc(NC(=O)C3COc4ccccc4O3)ccc12` (stereo not given), for which the cell number change was -67.9%. The AC50 under setting [1] is 23.1 µM [falling, partial curve, poor fit]. For the same compound, the AC50 under setting [2] was 20.6 µM [falling, single point]. `CC(Sc1nncs1)C(=O)Nc1ccc(Cl)cn1` (stereo not given): the cell number change is -18.3%. The AC50 under setting [1] is 0.461 µM [rising, single point]. The AC50 under setting [2] was 0.58 µM [rising, single point]. With `CN(CC(=O)NCc1ccc(F)cc1)Cc1cccc(Cl)c1`, the cell number change is -9.52%. Consider `CC(C)NS(=O)(=O)c1ccc(OCC(=O)N2CCc3ccccc3C2)cc1`, for which the cell number change is -14.3%. In addition, the half-maximal activity concentration (AC50) under setting [2] was 25.9 µM [falling, single point].

In the case of `Cc1cc(Cl)ccc1OCCCC(=O)Nc1cccnc1`, the cell number change was -20.6%. Further, under setting [2], the half-maximal activity concentration (AC50) is 0.411 µM [rising, full curve]. Turning to `Cc1nnc(SCCn2c(N3CC(C)CC(C)C3)nc3c2c(=O)n(C)c(=O)n3C)s1` (stereo not given), the cell number change was -21.5%. The AC50 under setting [2] is 0.366 µM [falling, full curve, poor fit]. In the case of `O=c1cc(-c2ccccc2)cc(-c2ccccc2)n1O`, the cell number change is 29%. For the same compound, the AC50 under setting [2] is 9.2 µM [rising, partial curve].

Consider `CC(=O)c1ccc(OCCn2cnc3ccccc32)cc1`, for which the cell number change was determined as 1.26%. Moreover, the AC50 under setting [2] was 9.2 µM [rising, partial curve]. For the compound `CC(C)NC(=O)c1sc2nc(-c3cccs3)cc(-c3cccs3)c2c1N`, the cell number change was found to be 9%. In addition, the AC50 under setting [1] was 0.82 µM [rising, full curve]. For the same compound, the AC50 under setting [2] was 0.651 µM [rising, full curve]. `Cc1ccc(NC(=O)CCc2nnc3ccc(NCc4ccco4)nn23)nc1`: the cell number change was -7.34%. Moreover, the AC50 under setting [2] was 25.9 µM [falling, partial curve, poor fit]. On to `C(=N\Nc1nc2ccccc2s1)/c1cccs1`, for which the cell number change is -19.7%.

`COCCCN1CC(=O)N2C(c3ccc(OC)c(OC)c3)c3[nH]c4ccccc4c3C[C@H]2C1=O` (stereo not given in full): under setting [2], the AC50 is 0.0366 µM [rising, full curve, poor fit].

Take `CC1(C(=O)NCc2ccc(F)cc2)Oc2ccccc2NC1=O` (stereo not given): the cell number change was -17.2%. The AC50 under setting [1] is 6.51 µM [falling, single point]. Besides, the half-maximal activity concentration (AC50) under setting [2] was 29.1 µM [falling, single point]. For `Cc1cccc(C)c1OCC(=O)Nc1ccc2c(c1)C(=O)NC2=O`, the cell number change was -25.1%. For the same compound, the concentration at half-maximal activity (AC50) under setting [2] was 29.1 µM [falling, single point]. As for `CCOc1nc(Nc2ccc(OC)cc2)nc(OCC)n1`, the cell number change came out at 78.4%. For the same compound, the half-maximal activity concentration (AC50) under setting [1] was 10.3 µM [rising, partial curve].

Take `COC(=O)c1[nH]cnc1C(=O)c1ccccc1`: the AC50 reads like this: under setting [1], 0.0184 µM [falling, full curve]; under setting [2], 29.1 µM [falling, partial curve].

As for `CC(=O)N1CCN(CCN=CC2=C(O)CC(c3cccs3)CC2=O)CC1` (stereo not given), under setting [2], the AC50 is 0.651 µM [falling, full curve, poor fit]. Still for that read-out and setting: under `CC(=O)c1c(C)[nH]c(C(=O)Nc2ccccn2)c1C` stands 10.3 µM [falling, partial curve, poor fit].

On to `Cc1ccc(S(=O)(=O)n2nc(C)c(C#N)c2N)cc1`, for which the cell number change was 2.41%. The AC50 under setting [2] was 29.1 µM [rising, single point]. Consider `Cc1cccnc1CC(C)NC(=O)c1cc(COc2cncc(Cl)c2)on1` (stereo not given), for which the cell number change is -26.7%. Moreover, under setting [2], the half-maximal activity concentration (AC50) is 29.1 µM [falling, single point]. On to `NC(=O)c1ccc(NC(=O)COC(=O)c2c3c(nc4ccccc24)/C(=C\c2ccc4c(c2)OCO4)CCC3)cc1`, for which the cell number change is -19.9%. For the same compound, under setting [2], the concentration at half-maximal activity (AC50) was 16.4 µM [falling, single point].

Take `COc1ccc(C2NC(=O)CS2)cc1OC` (stereo not given): the cell number change stood at 32.3%. Moreover, under setting [1], the AC50 is 0.517 µM [rising, full curve, poor fit]. With `CCn1c(-c2c(Cl)c(C)nn2C)n[nH]c1=S`, the cell number change is -5.74%. Moreover, under setting [1], the concentration at half-maximal activity (AC50) was 6.51 µM [falling, single point]. Moreover, under setting [2], the half-maximal activity concentration (AC50) was 0.58 µM [falling, full curve]. Turning to `O=C(COC(=O)c1ccccc1NC(=O)c1ccco1)Nc1ccc2c(c1)OCO2`, the cell number change was -8.33%. As for `O=[N+]([O-])c1nn(-c2ccc3c(c2)OCCO3)n(O)c1=Nc1ccccc1`, the cell number change is 0.704%. Besides, the AC50 under setting [2] is 29.1 µM [falling, single point]. Take `COC(=O)c1sc(N2C(=O)C(O)=C(C(=O)c3ccc(C)o3)C2c2ccc([N+](=O)[O-])cc2)nc1C` (stereo not given): the cell number change was -1.62%. In the case of `CC1(NC(=O)Nc2cccc3ccccc23)CCS(=O)(=O)C1` (stereo not given), the cell number change is -1.74%. Under setting [2], the half-maximal activity concentration (AC50) was 29.1 µM [rising, single point]. With `Cc1cc2c(cc1C)NC(c1ccccn1)C1=C(CC(C)(C)CC1=O)N2` (stereo not given), the AC50 under setting [1] is 6.51 µM [falling, single point]. `Cn1c(=O)n(C)c2cc([N+](=O)[O-])c(N3CCN(C(=O)c4cccc(Cl)c4)CC3)cc21`: the cell number change is -16%. The AC50 under setting [2] was 18.4 µM [falling, single point].

For the compound `Cc1sc(NC(=O)CN2CCN(c3ccccn3)CC2)c(C#N)c1C`, the cell number change was -2.89%. Moreover, the half-maximal activity concentration (AC50) under setting [2] was 5.17 µM [rising, single point]. On to `CC1CCN(C(=O)CCN2C(=O)/C(=C/c3cccs3)SC2=S)CC1`, for which the cell number change is -2.86%. For the same compound, under setting [2], the concentration at half-maximal activity (AC50) was 29.1 µM [falling, single point]. For the compound `CCC(C)(C)C1CCC2(CC1)NC(=O)N(CC(=O)NC(C)CCc1ccccc1)C2=O` (stereo not given), the cell number change is 12.9%.

Take `CCC1(CC)Cc2ccccc2-c2nc(-c3ccccc3)oc(=O)c21`: the cell number change stood at 21.5%. On to `CC12CCC(=O)N1C(C(=O)Nc1ccccc1F)CS2` (stereo not given), for which the cell number change is -27.8%. The half-maximal activity concentration (AC50) under setting [1] was 0.184 µM [falling, full curve, poor fit].

As for `CC1CN(c2nc(Nc3ccccc3)nc(N)c2[N+](=O)[O-])CC(C)O1` (stereo not given), the cell number change was -25.6%. Also, under setting [2], the half-maximal activity concentration (AC50) is 23.1 µM [falling, single point]. Consider `CCN(CC)CCn1c(NC(=O)c2ccccc2O)nc2ccccc21`, for which the cell number change is -25.2%. Also, under setting [2], the AC50 was 2.91 µM [falling, partial curve].

Regarding `Nc1ccc(-c2ncc(-c3ccccc3)o2)cc1`, the cell number change is -5.56%.

On to `CCc1sc(C(=O)Nc2ccsc2C(=O)OC)cc1Br`, for which the cell number change is -31.6%. Further, the AC50 under setting [1] is 0.0651 µM [falling, full curve].

For the compound `CCC(C)NC(=O)CSc1nc2c(sc3ccccc32)c(=O)n1CCCN1CCOCC1` (stereo not given), the AC50 under setting [1] was 2.91 µM [rising, single point]. On to `C=CCc1c(C)nc(-c2ccccc2)nc1Nc1ccc(O)cc1`, for which the cell number change is -37.8%. In addition, the AC50 under setting [1] is 29.1 µM [falling, single point]. In addition, under setting [2], the concentration at half-maximal activity (AC50) is 11.6 µM [falling, partial curve, poor fit]. On to `NNc1nc2c(F)cc(F)cc2s1`, for which the cell number change was -36.3%. In addition, the AC50 under setting [1] was 16.4 µM [falling, single point]. Also, the AC50 under setting [2] is 5.8 µM [falling, full curve]. With `CCCCn1c(N)c(N(CC)C(=O)c2ccc(Cl)c([N+](=O)[O-])c2)c(=O)[nH]c1=O`, the cell number change stood at 4.2%. As for `COCCN(CC(=O)Nc1ccccc1)S(=O)(=O)c1ccc(S(=O)(=O)N2CCCC2)cc1`, the cell number change stood at 9.25%. Further, the half-maximal activity concentration (AC50) under setting [2] was 0.326 µM [falling, partial curve, poor fit]. For the compound `CCOC(=O)C1=C(C)NC(=O)NC1c1ccc(OCCO)c(OC)c1` (stereo not given), the half-maximal activity concentration (AC50) was 0.731 µM [falling, single point] under setting [1] and 6.51 µM [falling, single point] under setting [2]. Turning to `Cn1c(SCc2ccccc2Cl)nc2ccccc21`, the AC50 by setting is: under setting [1], 5.8 µM [rising, single point]; under setting [2], 29.1 µM [rising, single point]. Turning to `Cc1ccccc1NS(=O)(=O)c1nnc(NC(=O)c2ccc(Br)cc2)s1`, the cell number change was determined as 4.13%. Further, the concentration at half-maximal activity (AC50) under setting [2] was 6.51 µM [falling, partial curve, poor fit]. As to `CCC1CCCCN1C(=O)c1cc2cc(Br)ccc2oc1=O` (stereo not given), the cell number change was 11.1%. Moreover, the AC50 under setting [2] is 0.731 µM [falling, full curve, poor fit].
